Results on ten sequences are retold here after publication PMC12370185.

The list shows a part of the results.

Test systems include KLF4 + histone octamer; OCT4 + histone octamer; SOX2 + histone octamer.
Experiment in all cases: EMSA with sequencing
Conditions in all cases: 10 mM Tris-Cl pH 7.5, 50 mM NaCl, 1 mM DTT, 0.25 mg/ml BSA, 2 mM MgCl2, 0.025% Nonidet P-40, 5% glycerol; 28 nM nucleosome library; 10 min on ice then 30 min …; high values mean tight binding; double strand, one strand shown
(In general: A gel shift assay detects complexes by their altered migration in electrophoresis.)

The subject of experiment [1] is c-MYC + MAX + histone octamer.

Take “GATGGACCCTATACGCGGCGAGCAGAGTCAAAGGGTTGGGTATTGGCTCCATGCTACAACTTTCCACTAGGCAAAACAGAGCCTCTCCAAATAGCTGCTTGTGATAGACATGATTATCTCAATTGCATAGGATTGTTAACAAGACAAAGGAAATGGTATACCTAATAAGCATTTGATAAGGTGTAGACAGAAATCCTGATTTTGTTGTTATGCCAGTCGGATAGTGTTCC”: the binding signal (log2 relative supershift) was 2.07 with KLF4 + histone octamer, 0.363 in the experiment with OCT4 + histone octamer, 1 in the experiment on SOX2 + histone octamer and 0.15 in experiment [1].

As to “GATGGACCCTATACGCGGCGCACACTCAGCATTCAGCCTTCATAGGGAACAAAGGTGAGGAGGAGATTAGCATGTTTAAGAAGGGAAACAAGGCCAGTGGGGCAGGTACATTGGGAGTTAGGGTGGCAATCATATGCAATTTGAGAGCTGGGCAGGAATTAGACTGCCAGAGTTTTGTAAGCCATGGTAAGGGGCTTAGGTTTTATTCTATGCCAGTCGGATAGTGTTCC”, the binding signal (log2 relative supershift) worked out at 1.4 in the experiment on KLF4 + histone octamer, 0.012 in the experiment on OCT4 + histone octamer, 1.95 with SOX2 + histone octamer and 0.203 in experiment [1].

As for “GATGGACCCTATACGCGGCATGATTCTCGCCAGTTAAGTGGTATTAACATATCCTCAGTGGTGAGTATTAACATGGAACTTACTCCAACAATACAGATGCTGAATAAATGTAGTCTAAGTGAAGGAAGAAGGAAAGGTGGGAGCTGCCATCACTCAGAATTGTCCAGCAGGGATTGTGCAAGCTTGTGAATAAAGACACAGCGACTTTACTGCCAGTCGGATAGTGTTCC”, the binding signal (log2 relative supershift) was 0.686 in the experiment with KLF4 + histone octamer, 1.45 in the experiment on OCT4 + histone octamer, 0.842 in the experiment on SOX2 + histone octamer and 0.505 in experiment [1].

Turning to “GATGGACCCTATACGCGGCGGCTCTGGTCTAGAATGGCACCTTGGCAAGTCAGTTTTGAGTGTTCACAGGAGGTAGACTACTCCTGCCTGTTTGGTCTTTCTTATGGTAGACCTTCACCCAGTCAATAATGGAGTGAATAAAACTCCTCTGTTTCAGCTACCGCTATCTAATTGGCCAGCACAGTCTTTTAGTGGATACCGCTGGCTATTTGCCAGTCGGATAGTGTTCC”, the binding signal (log2 relative supershift) was 0.953 with KLF4 + histone octamer, 0.432 with OCT4 + histone octamer, 0.216 with SOX2 + histone octamer and 0.542 in experiment [1].

As for “GATGGACCCTATACGCGGCGAATTAAGCTTTGGAATTGCAAACGTCAGAATTGAGACTGCATTGATAAGCAGAAAAGCAAATAATGCTGACCTGAGATCTTCAACCTTCTCTCCTGTGGCTTTCATGAGTCTTGAAAGGAGACTGGTGCTTACTAAGACCACTGATTTGTACTAAGGAGCGTTTGCATCTGGTGTCTTCCCTTGTGCTGATGCCAGTCGGATAGTGTTCC”, the binding signal (log2 relative supershift) was determined as 0.595 in the experiment with KLF4 + histone octamer, 0.0297 in the experiment on OCT4 + histone octamer, 0.811 in the experiment with SOX2 + histone octamer and 0.0999 in experiment [1].

Regarding “GATGGACCCTATACGCGGCACCTCAAGTGAATAAATTGACCTCGAATGACACAACCATAATCTACTTTTAGATGAAAGGCAAGGGATTTTGGTGGAGCTTGAGGTGGGGGGTGGCTGCGGTAATGTAACTAAACTGCATTCTCAAGCGGATTTGGCCCCGTATTGCACTTTGCATGCAAATGAGCCTGTGTTATTATTATTAATGTTATTTGCCAGTCGGATAGTGTTCC”, the binding signal (log2 relative supershift) in the experiment on KLF4 + histone octamer came out at 0.686; in the experiment on OCT4 + histone octamer, 0.859; in the experiment with SOX2 + histone octamer, 0.725; in experiment [1], 0.0939.

For the sequence “GATGGACCCTATACGCGGCAGGTGAGCAATCACAGTATCTGTTTATAACTTCATATCACTGAAAGAGGAACTGAATAGGGTAGAAAAGACAATATTGAATTGCTGACACCACCCCTGCCCCATCTCCTGGCAGTGACCACGTGTCACAGAGAGAGAATCTGTGCACTTGGGTGAGGGAGAGTGCAGGGATTGCGGGAAATCAGTACTGCATGCCAGTCGGATAGTGTTCC”, the binding signal (log2 relative supershift) with KLF4 + histone octamer is 0.793; with OCT4 + histone octamer it was 0.189; with SOX2 + histone octamer, 0.292; in experiment [1] it was 0.293.

In the case of “GATGGACCCTATACGCGGCTACAGTTGAATCCAAAAGCATTTATAGGAAACAAGTGAGGGCTGGGCATCTCATTTGCATAATGCATGAATTTCTGGTAGCTCCACCCCATCCTCCTAATGCACATGTGGACCCTTAGCTTGAGTTACTTCATATTGCTTTGCTCCCCTTACTGCACATGTATCAGGGGATGAAATTTTCCATTGTGGGCATGCCAGTCGGATAGTGTTCC”, the binding signal (log2 relative supershift) in the experiment with KLF4 + histone octamer turned out to be 1.65; with OCT4 + histone octamer, 1.38; in the experiment on SOX2 + histone octamer it was 1.29; in experiment [1] it was 0.078.

“GATGGACCCTATACGCGGCCTAGGGCCTTGGCAGGCCTCTGTGTGCTGTGATAATCACACCCTGAAGATTATTATGACATTGGAGGCATGCCCGGTCTGGCTCCAGACAAGGTGGTGCATGCAATATCATGGAGCTGCAGCAGTGTCACTTAGCCACATGTAGGGCAGAATGATGCTAGGCATACCCTGACAGATCTCTGGGTGACATAATGCCAGTCGGATAGTGTTCC”: the binding signal (log2 relative supershift) in the experiment on KLF4 + histone octamer turned out to be 2.27; in the experiment with OCT4 + histone octamer, 1.11; in the experiment on SOX2 + histone octamer it was 0.905; in experiment [1] it was 1.18.

Consider “GATGGACCCTATACGCGGCGTGTATGTATGTGTGGAGGTGCATGTGTGCACATGTGTGCGTATGTATTTGTTGGGGTGGGTGCATGTGTGCAAAAGTGTACATATGCATGTATGTGTATGTGTGTGGGTGCATTGTGCTTATGCATCTGTGTGTATATGTGAGTGCATGTGCACATGTGTTTGTGTATGTGTGGGTGCATGTGTGCATATTGCCAGTCGGATAGTGTTCC”, for which the binding signal (log2 relative supershift) was 1.82 with KLF4 + histone octamer, 0.746 with OCT4 + histone octamer, 0.125 in the experiment on SOX2 + histone octamer and 2.43 in experiment [1].
